Experimental findings from article PMC10290989 are described below.

Results are given in words; binding and its absence hold for the method and conditions named. In cells and extracts the contact can be indirect. Some results given as binding are weak or reduced against the parent protein; the word gives no strength.

The assay has as its target TRIM28 full-length, ectopically expressed, Q13263. Kind of assay: co-IP; whole G.C. cell lysates in I.P. buffer (NP-40, 50 mM Tris-HCl pH 7.4, 50 mM EDTA, 150 mM NaCl); antibody 2 h at 4 °C, protein A/G agarose beads overnight at 4 °C; five washes; immunoblot; ectopically expressed or endogenous proteins. Particulars: remark: other sources report otherwise. (A western blot detects proteins with antibodies after separation by electrophoresis.)

B1: TBK1, Q9UHD2 1-729 (protein)
chain: MQSTSNHLWLLSDILGQGATANVFRGRHKKTGDLFAIKVFNNISFLRPVDVQMREFEVLKKLNHKNIVKLFAIEEETTTRHKVLIMEFCPCGSLYTVLEEPSNAYGLPESEFLIVLRDVVGGMNHLRENGIVHRDIKPGNIMRVIGEDGQSVYKLTDFGAARELEDDEQFVSLYGTEEYLHPDMYERAVLRKDHQKKYGATVDLWSIGVTFYHAATGSLPFRPFEGPRRNKEVMYKIITGKPSGAISGVQKAENGPIDWSGDMPVSCSLSRGLQVLLTPVLANILEADQEKCWGFDQFFAETSDILHRMVIHVFSLQQMTAHKIYIHSYNTATIFHELVYKQTKIISSNQELIYEGRRLVLEPGRLAQHFPKTTEENPIFVVSREPLNTIGLIYEKISLPKVHPRYDLDGDASMAKAITGVVCYACRIASTLLLYQELMRKGIRWLIELIKDDYNETVHKKTEVVITLDFCIRNIEKTVKVYEKLMKINLEAAELGEISDIHTKLLRLSSSQGTIETSLQDIDSRLSPGGSLADAWAHQEGTHPKDRNVEKLQVLLNCMTEIYYQFKKDKAERRLAYNEEQIHKFDKQKLYYHATKAMTHFTDECVKKYEAFLNKSEEWIRKMLHLRKQLLSLTNQCFDIEEEVSKYQEYTNELQETLPQKMFTASSGIKHTMTPIYPSSNTLVEMTLGMKKLKEEMEGVVKELAENNHILERFGSLTMDGGLRNVDCL
As to B1, the binding entry was “binds”.
